Here are results for 28 compounds from PubChem BioAssay AID248 (DTP/NCI, 2004).

For this experiment, the system named is L1210 leukemia ip in BDF1 mice, survival T/C. The experiment in a line: NCI In Vivo Anticancer Drug Screen. Data for tumor model L1210 Leukemia (intraperitoneal) in B6D2F1 (BDF1) mice. Particulars: T/C endpoint: mean survival time, higher T/C = longer survival.
The mark [1] stands for this setting: dose: 120.0 mg/kg/injection, schedule: Q01DX Z (ip), vehicle: saline.
[2] abbreviates: dose: 100.0 mg/kg/injection, schedule: Q01DX009 (ip), vehicle: Klucel (hydroxypropylcellulose) (HPC).
[3] abbreviates: dose: 100.0 mg/kg/injection, schedule: Q04DX003 (ip), vehicle: Klucel (hydroxypropylcellulose) (HPC).
Setting [4] is: dose: 200.0 mg/kg/injection, schedule: Q04DX003 (ip), vehicle: Klucel (hydroxypropylcellulose) (HPC).
The mark [5] stands for this setting: dose: 400.0 mg/kg/injection, schedule: Q04DX003 (ip), vehicle: Klucel (hydroxypropylcellulose) (HPC).
The mark [6] stands for this setting: dose: 400.0 mg/kg/injection, schedule: Q01DX009 (ip), vehicle: Klucel (hydroxypropylcellulose) (HPC).
Setting [7] is: dose: 100.0 mg/kg/injection, schedule: Q01DX009 (ip), vehicle: saline with Tween-80.
The mark [8] stands for this setting: dose: 200.0 mg/kg/injection, schedule: Q01DX009 (ip), vehicle: saline with Tween-80.
The mark [9] stands for this setting: dose: 400.0 mg/kg/injection, schedule: Q01DX009 (ip), vehicle: saline with Tween-80.
Setting [10] is: dose: 200.0 mg/kg/injection, schedule: Q01DX009 (ip), vehicle: saline.
Where [11] appears, read: dose: 400.0 mg/kg/injection, schedule: Q04DX003 (ip), vehicle: saline with Tween-80.
[12] abbreviates: dose: 400.0 mg/kg/injection, schedule: Q04DX002 (ip), vehicle: saline.
The mark [13] stands for this setting: dose: 100.0 mg/kg/injection, schedule: Q01DX001 (ip), vehicle: saline.
Setting [14] is: dose: 200.0 mg/kg/injection, schedule: Q01DX001 (ip), vehicle: saline.
Where [15] appears, read: dose: 400.0 mg/kg/injection, schedule: Q01DX001 (ip), vehicle: saline.
Where [16] appears, read: dose: 200.0 mg/kg/injection, schedule: Q01DX009 (ip), vehicle: Klucel (hydroxypropylcellulose) (HPC).

The structures appear in SMILES notation. The list shows only some results of the screen, not a fair sample: it is rich in T/C values a quarter to a half above the control, in often repeated tests (any T/C) and in doses without a T/C. Further doses and runs are listed elsewhere. T/C is the treated group as % of the vehicle group. Some doses have a count of surviving animals in place of a T/C: the source files T/C as zero there, which appears to mark a toxic dose or a test without result, not a measured value. Some doses without a T/C left all or most animals alive at the check, yet need not have been tolerated: the source hardly ever lists a survival T/C far under the control, and the zero likely stands for such cases as well. Survivors were counted at the toxicity check, usually on the fifth day, unless a day is given; later deaths do not show. Schedules are NCI's codes, read here as Q, the interval in days (D) or hours (H), X, the number of doses. Some schedule codes hold Z or #, which are not explained here. Where survival is the endpoint, the PubChem record calls one and a half times the control and up active, and a quarter to a half above the control has no call in these data; cut-offs in other NCI protocols can differ. Some T/C values are followed by the survivors on the day toxicity was checked, most often the fifth; where none is given, no animal had died by that day.

Turning to `CNC(=O)c1cc(NC(=O)Nc2cccc(C3=NCCN3)c2)cc(NC(=O)Nc2cccc(C3=NCCN3)c2)c1`, where the note is “dose: 30.0 mg/kg/injection, schedule: Q01DX Z (ip), vehicle: saline”, the T/C was 127 % of control. Also, under setting [1], the survivor count was 0 of 6.

In the case of `CC(C)(C)C1CCC(NC(=O)C(Cl)(Cl)Cl)CC1` (stereo not given), the survivor count is 2 of 6 under setting [2], 6 of 6 under setting [3], 0 of 6 under setting [4] and 0 of 6 under setting [5].

With `NC(=O)C1=Cc2cc(Cl)ccc2OC1`, under setting [6], the survivor count is on record as 6 of 6.

As to `C=CCC1(CCC)C(=O)NC(=O)NC1=O`, the survivor count is recorded as 4 of 4 under setting [4] and 0 of 6 under setting [5].

In the case of `COc1cccc(NC(=O)N(CCCl)N=O)c1`, the T/C (dose: 9.0 mg/kg/injection, schedule: Q01DX001 (ip), vehicle: carboxymethylcellulose (CMC)) is 133 % of control. Moreover, the survivor count by setting is: (dose: 187.0 mg/kg/injection, schedule: Q01DX001 (ip), vehicle: carboxymethylcellulose (CMC)) 5 of 6; (dose: 375.0 mg/kg/injection, schedule: Q01DX001 (ip), vehicle: carboxymethylcellulose (CMC)) 0 of 6; (dose: 500.0 mg/kg/injection, schedule: Q01DX001 (ip), vehicle: carboxymethylcellulose (CMC)) 1 of 6; (dose: 750.0 mg/kg/injection, schedule: Q01DX001 (ip), vehicle: carboxymethylcellulose (CMC)) 0 of 6.

For the compound `c1ccc(C(c2ccccc2)[Si](c2ccccc2)(C(c2ccccc2)c2ccccc2)C(c2ccccc2)c2ccccc2)cc1`, the survivor count (dose: 150.0 mg/kg/injection, schedule: Q01DX009 (ip), vehicle: Klucel (hydroxypropylcellulose) (HPC)) is listed as 6 of 6.

Regarding `CCCCCCCCCCOB(OCCCCCCCCCC)OCCCCCCCCCC`, the survivor count under setting [7] is 0 of 6, the survivor count under setting [8] is given as 0 of 6 and the survivor count under setting [9] is 0 of 6.

For the compound `COc1cc2c(cc1OC)C(C#N)C2` (stereo not given), the survivor count (dose: 25.0 mg/kg/injection, schedule: Q01DX009 (ip), vehicle: Klucel (hydroxypropylcellulose) (HPC)) is on record as 3 of 6; the survivor count (dose: 25.0 mg/kg/injection, schedule: Q04DX003 (ip), vehicle: Klucel (hydroxypropylcellulose) (HPC)) is given as 6 of 6; the survivor count (dose: 50.0 mg/kg/injection, schedule: Q01DX009 (ip), vehicle: Klucel (hydroxypropylcellulose) (HPC)) is reported as 3 of 6; the survivor count under setting [2] is listed as 0 of 6; the survivor count under setting [3] was 0 of 6; the survivor count under setting [4] is recorded as 0 of 6. Also, under setting [5], the survivor count is 0 of 6.

Consider `CC12OC(c3ccccc3)(C3=C1C1CCC(C1)C3(C)C)c1ccccc12` (stereo not given), for which the survivor count (dose: 100.0 mg/kg/injection, schedule: Q01DX009 (ip), vehicle: saline) is on record as 6 of 6 and the survivor count under setting [10] was 6 of 6.

As to `CNC(=N)c1ccc(NC(=N)c2ccc(NC(=N)c3ccc(NC(=O)Nc4ccc(C(=N)Nc5ccc(C(=N)Nc6ccc(C(=N)NC)cc6)cc5)cc4)cc3)cc2)cc1`, the T/C reads like this: (dose: 8.0 mg/kg/injection, schedule: Q01DX015 (ip), vehicle: water) 134 % of control; (dose: 50.0 mg/kg/injection, schedule: Q01DX001 (ip), vehicle: water) 131 % of control; (dose: 63.0 mg/kg/injection, schedule: Q01DX015 (ip), vehicle: water) 138 % of control [5 of 6 alive].

Consider `CC(=O)OCC(OC(C)=O)C(OC(C)=O)C(C#N)OC(C)=O` (stereo not given), for which the survivor count is listed as 1 of 6 under setting [3], 0 of 6 under setting [4], 0 of 6 under setting [5] and 1 of 6 under setting [11].

For `NCCCNCCNCCCN`, the survivor count is, setting by setting: (dose: 100.0 mg/kg/injection, schedule: Q04DX003 (ip), vehicle: saline) 3 of 3; (dose: 200.0 mg/kg/injection, schedule: Q04DX003 (ip), vehicle: saline) 3 of 3; under setting [12], 0 of 3; (dose: 400.0 mg/kg/injection, schedule: Q04DX003 (ip), vehicle: saline) 1 of 3.

With `C[N+](C)(C)CC1COCCO1` (stereo not given), the survivor count (dose: 10.0 mg/kg/injection, schedule: Q01DX001 (ip), vehicle: saline) is listed as 1 of 4; the survivor count (dose: 20.0 mg/kg/injection, schedule: Q01DX001 (ip), vehicle: saline) is reported as 0 of 4; the survivor count (dose: 40.0 mg/kg/injection, schedule: Q01DX001 (ip), vehicle: saline) is given as 0 of 4; the survivor count (dose: 50.0 mg/kg/injection, schedule: Q01DX001 (ip), vehicle: saline) is on record as 0 of 4; the survivor count (dose: 80.0 mg/kg/injection, schedule: Q01DX001 (ip), vehicle: saline) is on record as 0 of 4; the survivor count under setting [13] is given as 0 of 4. Also, the survivor count is 0 of 4 under setting [14] and 0 of 4 under setting [15].

Regarding `COC(=O)/C(Cl)=C(\Cl)C(=O)OC`, the survivor count under setting [2] is 1 of 6; the survivor count under setting [16] was 0 of 6; the survivor count under setting [8] is listed as 3 of 6; the survivor count under setting [4] was 2 of 6; the survivor count under setting [6] is 0 of 6; the survivor count under setting [9] is 0 of 6. In addition, the survivor count reads like this: under setting [5], 3 of 6; under setting [11], 3 of 6.

For the compound `c1ccc(P(=NC2CCCCC2)(c2ccccc2)c2ccccc2)cc1`, where the note is “dose: 200.0 mg/kg/injection, schedule: Q04DX003 (ip), vehicle: acetone”, the survivor count is given as 3 of 6.

`C=C(Br)CSC#N`: the survivor count is recorded as 4 of 6 under setting [7], 0 of 6 under setting [8] and 0 of 6 under setting [9].

As for `NC(=O)c1ccc[n+](CCN(CCCl)c2ccc3ccccc3c2)c1`, the survivor count is 0 of 6 under setting [2], 0 of 6 under setting [16] and 0 of 6 under setting [6].

For `CC1(C)Oc2c(ccc(O)c2CN2CCCCC2)C2=C1CCCC2`, the survivor count was 3 of 6 under setting [14] and 1 of 6 under setting [15].

Take `O=[N+]([O-])c1ccc(C=Nc2cc(Cl)ccc2Cl)s1`: under setting [11], the survivor count is on record as 5 of 6.

In the case of `COc1c(C(=O)Nc2ccc(C3=NCCN3)cc2)cccc1C(=O)Nc1ccc(C2=NCCN2)cc1`, the survivor count is 0 of 6 (dose: 60.0 mg/kg/injection, schedule: Q01DX Z (ip), vehicle: saline) and 0 of 6 under setting [1].

For the compound `CCC(SC(CC)C(=O)O)C(=O)O` (stereo not given), the survivor count under setting [15] is 1 of 3.

`O=N[O-].O=N[O-].[Co].[NH-]CC[N-]CC[N-]CC[NH-]`: the survivor count under setting [13] is 0 of 4, the survivor count under setting [14] is reported as 0 of 4 and the survivor count under setting [15] is given as 0 of 4.

As for `Cc1ccc(C(C)C)c(OC(=O)Nc2ccc(Cl)cc2)c1`, the T/C under setting [5] is 126 % of control.

Consider `CC(=O)Nc1ccc(OC(=O)Nc2c(C)cccc2Cl)cc1`, for which the survivor count is given as 3 of 6 under setting [16] and 0 of 6 under setting [6].

With `Cc1nc(-c2ccccc2)c(-c2ccccc2)[nH]1`, the T/C under setting [2] was 130 % of control [5 of 6 alive]. Besides, the survivor count is, setting by setting: under setting [16], 0 of 6; under setting [5], 2 of 6.

As for `CCOC(=O)Oc1c(OC)cc(C(=O)O[C@@H]2C[C@@H]3CN4CCc5c([nH]c6cc(OC)ccc56)[C@H]4C[C@@H]3[C@H](C(=O)OC)[C@H]2OC)cc1OC`, the survivor count under setting [5] is on record as 0 of 4.

`Cc1ccc(S(=O)(=O)NCCC(=N)N)cc1`: the survivor count under setting [15] was 1 of 6.

Consider `CC1CCN(C(=O)CC#N)CC1`, for which the survivor count under setting [10] was 1 of 3 and the survivor count under setting [12] is listed as 1 of 3.
